# Values quoted from earlier work as cited in US20100222262A1, “SUBSTITUTED 1, 3-CYCLOPENTADIONE ATTENUATED ENDOTHELIAL INFLAMMATION AND ENDOTHELIAL-MONOCYTE INTERACTIONS” (METAPROTEOMICS, LLC, priority 2008, published 2010).
# Like-named read-outs stand apart in the source and are kept apart here. For at least one compound, name, drawing or mass did not settle the structure.
# Test system: 85 Kinases
SMILES,G10 (Gini coefficient) (Concn 50 uM),hit rate (>50% Inhibition) (Concn 50 uM),G10 (Gini coefficient) (Concn 1 uM),hit rate (>50% Inhibition) (Concn 1 uM)
O=c1cc(N2CCOCC2)oc2c(-c3ccccc3)cccc12 [LY294002],0.619,6,–,–
COC[C@H]1OC(=O)c2coc3c2[C@@]1(C)C1=C(C3=O)[C@@H]2CCC(=O)[C@@]2(C)C[C@H]1OC(C)=O [Wortmannin],–,–,0.775,0
